Results are given as percent effect.
How 0% and 100% were set is not recorded. Most values in the screen are low, and negative values occur.
The compounds are a random part of those screened.
Two or more numbers in one place are separate tests of the same structure; such repeats can differ widely.
A dash means the value is not listed here; it may have been measured.

Amino acid sequences for entries named in this document (tags omitted).
UniProt I6X8D2, whole entry: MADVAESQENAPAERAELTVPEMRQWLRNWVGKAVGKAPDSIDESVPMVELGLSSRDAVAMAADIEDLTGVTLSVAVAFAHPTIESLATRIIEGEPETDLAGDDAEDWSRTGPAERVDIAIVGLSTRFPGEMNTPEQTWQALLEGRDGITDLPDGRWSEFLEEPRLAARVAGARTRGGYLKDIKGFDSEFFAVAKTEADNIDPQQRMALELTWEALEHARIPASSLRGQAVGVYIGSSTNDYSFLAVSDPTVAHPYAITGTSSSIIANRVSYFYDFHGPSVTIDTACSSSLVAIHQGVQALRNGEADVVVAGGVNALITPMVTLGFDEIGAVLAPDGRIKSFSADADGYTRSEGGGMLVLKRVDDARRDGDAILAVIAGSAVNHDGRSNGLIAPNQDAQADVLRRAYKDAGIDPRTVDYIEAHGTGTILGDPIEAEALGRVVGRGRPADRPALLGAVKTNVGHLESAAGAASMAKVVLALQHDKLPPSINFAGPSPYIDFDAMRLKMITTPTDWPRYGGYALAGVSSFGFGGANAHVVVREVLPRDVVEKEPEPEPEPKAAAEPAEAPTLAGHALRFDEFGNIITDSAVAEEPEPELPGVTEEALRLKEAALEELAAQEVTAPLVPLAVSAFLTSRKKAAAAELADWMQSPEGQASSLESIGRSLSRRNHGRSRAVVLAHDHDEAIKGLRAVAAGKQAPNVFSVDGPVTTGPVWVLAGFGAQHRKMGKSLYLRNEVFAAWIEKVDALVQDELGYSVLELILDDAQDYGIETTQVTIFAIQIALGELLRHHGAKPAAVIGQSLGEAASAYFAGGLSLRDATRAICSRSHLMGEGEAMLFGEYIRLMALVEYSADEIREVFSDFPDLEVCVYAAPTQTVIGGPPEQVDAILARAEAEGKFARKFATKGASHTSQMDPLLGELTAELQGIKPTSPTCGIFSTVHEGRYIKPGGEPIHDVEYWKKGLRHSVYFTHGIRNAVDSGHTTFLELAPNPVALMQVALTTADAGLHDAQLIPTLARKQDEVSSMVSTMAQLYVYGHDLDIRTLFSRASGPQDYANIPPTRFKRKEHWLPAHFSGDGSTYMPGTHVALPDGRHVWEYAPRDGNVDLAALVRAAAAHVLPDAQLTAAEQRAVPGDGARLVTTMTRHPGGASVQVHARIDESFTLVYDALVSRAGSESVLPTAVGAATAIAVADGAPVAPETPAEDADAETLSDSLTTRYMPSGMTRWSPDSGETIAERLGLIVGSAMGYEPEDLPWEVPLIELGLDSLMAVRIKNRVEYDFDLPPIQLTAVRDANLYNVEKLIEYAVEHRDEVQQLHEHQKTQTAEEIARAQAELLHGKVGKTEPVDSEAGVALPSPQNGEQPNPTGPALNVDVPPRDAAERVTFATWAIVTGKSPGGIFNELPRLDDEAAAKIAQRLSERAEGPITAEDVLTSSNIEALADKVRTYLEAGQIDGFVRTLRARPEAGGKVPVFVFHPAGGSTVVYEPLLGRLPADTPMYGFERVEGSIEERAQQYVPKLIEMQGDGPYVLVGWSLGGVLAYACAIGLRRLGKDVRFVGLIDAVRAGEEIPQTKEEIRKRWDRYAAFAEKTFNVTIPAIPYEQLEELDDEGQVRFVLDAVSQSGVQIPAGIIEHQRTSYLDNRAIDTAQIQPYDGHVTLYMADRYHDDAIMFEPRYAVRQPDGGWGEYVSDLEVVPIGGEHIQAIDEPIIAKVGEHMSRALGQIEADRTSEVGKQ
UniProt P9WNZ1, whole entry: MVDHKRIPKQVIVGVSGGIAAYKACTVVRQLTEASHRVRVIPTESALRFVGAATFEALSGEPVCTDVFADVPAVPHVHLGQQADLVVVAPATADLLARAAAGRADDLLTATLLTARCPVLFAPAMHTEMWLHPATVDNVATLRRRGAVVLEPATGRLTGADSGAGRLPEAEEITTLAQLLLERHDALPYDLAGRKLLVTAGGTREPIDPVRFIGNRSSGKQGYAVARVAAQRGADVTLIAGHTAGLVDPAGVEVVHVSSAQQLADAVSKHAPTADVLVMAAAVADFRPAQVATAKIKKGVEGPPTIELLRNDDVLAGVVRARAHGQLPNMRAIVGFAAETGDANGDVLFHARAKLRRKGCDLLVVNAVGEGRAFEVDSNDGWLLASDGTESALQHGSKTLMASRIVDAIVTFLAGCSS
UniProt P9WPC5, whole entry: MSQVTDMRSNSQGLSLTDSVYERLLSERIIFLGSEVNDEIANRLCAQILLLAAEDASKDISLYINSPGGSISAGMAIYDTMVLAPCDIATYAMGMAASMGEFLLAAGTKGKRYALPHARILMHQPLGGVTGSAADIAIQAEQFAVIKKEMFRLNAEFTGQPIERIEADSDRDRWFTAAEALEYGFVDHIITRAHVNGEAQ
UniProt P9WPC3, whole entry partner: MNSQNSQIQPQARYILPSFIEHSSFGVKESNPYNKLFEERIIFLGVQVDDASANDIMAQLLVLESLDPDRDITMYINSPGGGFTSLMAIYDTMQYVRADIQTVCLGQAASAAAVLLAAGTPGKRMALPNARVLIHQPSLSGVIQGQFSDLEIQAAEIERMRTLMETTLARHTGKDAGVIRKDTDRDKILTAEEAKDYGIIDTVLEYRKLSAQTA
UniProt P9WFT3, whole entry: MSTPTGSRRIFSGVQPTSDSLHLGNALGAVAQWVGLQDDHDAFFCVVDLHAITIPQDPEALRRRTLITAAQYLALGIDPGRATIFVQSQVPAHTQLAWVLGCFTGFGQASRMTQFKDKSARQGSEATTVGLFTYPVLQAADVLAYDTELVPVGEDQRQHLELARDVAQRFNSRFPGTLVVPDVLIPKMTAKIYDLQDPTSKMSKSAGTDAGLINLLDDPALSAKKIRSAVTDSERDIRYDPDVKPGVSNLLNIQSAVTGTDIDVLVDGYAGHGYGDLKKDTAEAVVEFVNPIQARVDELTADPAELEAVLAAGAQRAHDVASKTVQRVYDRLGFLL

Pks13 thioesterase: 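Enzyme assay of the thioesterase domain of polyketide synthase 13; the read-out is not stated. Target: Polyketide synthase Pks13, Mycobacterium tuberculosis (UniProt I6X8D2). Concentration: 30 µM. The record gives no direction; the compounds picked for IC50 retests had high values, so higher reads as stronger inhibition. About 67,000 compounds were tested under these conditions; 0.46% (about 300) showed 50% or more at least once.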
Toxoplasma: 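Assay of Toxoplasma gondii numbers, read through their beta-galactosidase reporter with a colour substrate. Tested at 10 µM. Higher reads as fewer parasites (inferred from which compounds were picked for retests). Size under these conditions: about 67,000 compounds, about 260 of them at 50% or above in at least one test.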
CoaBC: 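Coenzyme A biosynthesis protein CoaBC, Mycobacterium tuberculosis (UniProt P9WNZ1). Enzyme assay of CoaBC with a phosphate dye (Biomol Green) read at 650 nm. Tested at 30 µM. Direction is inferred from only a few compounds that gave an IC50; most scored high, so higher reads as stronger inhibition. Most strong results did not repeat in a second test. Of about 67,000 compounds tested this way, about 40 (0.06%) reached 50% or more in at least one test.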
ClpP1P2: 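ClpP1P2, Mycobacterium tuberculosis (UniProt P9WPC5 and UniProt P9WPC3). Protease assay of ClpP1P2, read by the AMC dye that it sets free. Tested at 50 µM. Higher reads as stronger inhibition, judged from the few compounds that gave an IC50. Most other retested compounds had strongly negative values. Size under these conditions: about 69,000 compounds, about 10 of them at 50% or above in at least one test.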
Leishmania in macrophages: 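Cell assay of Leishmania donovani living inside macrophages; the read-out is not stated. Tested at 30 µM. Direction is inferred from retests: higher values go with stronger inhibition. Of about 69,000 compounds tested this way, about 1,000 (1.5%) reached 50% or more in at least one test.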
MtTrpRS: 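Tryptophan-tRNA ligase, Mycobacterium tuberculosis (UniProt P9WFT3). Enzyme assay of tryptophanyl-tRNA synthetase; the read-out is not stated. Concentration: 10 µM. Direction is not recorded; retested compounds ran higher, which suggests that high means inhibition. Size under these conditions: about 65,000 compounds, about 64 of them at 50% or above in at least one test.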

compound	Pks13 thioesterase	Toxoplasma	CoaBC	ClpP1P2	Leishmania in macrophages	MtTrpRS
O=C(O)C(F)(F)F.[H][C@@]12CCN(c3cnccn3)C[C@]1([H])CN(C(=O)c1cncn1C)C2	-	-37.11	-	-	18.05	-
CC(O)CN1CCC(CNCc2cccc(OC(F)(F)F)c2)CC1 (stereo not drawn)	-8.416	-5.004	5.371	-32.85	66.17	-4.68
CC(C)C1CN(S(C)(=O)=O)CCCN1Cc1ccc(F)cc1 (stereo not drawn)	-24.3	0.8323	-3.226	-5.741	23.27	0.6399
Cl.c1cc(CNCc2ccnc(N3CCOCC3)c2)c2c(c1)OCO2	-	8.267	-	-	-4.198	-
COc1ccccc1OCCN(C)c1cc(C)nc(N)n1	-5.527	2.509	-9.375	1.045	6.974	1.548
COc1ccc(CNCc2ccnc(N3CCCC3)c2)c(OC)c1	-9.452	-	-0.2632	-18.24	-	-4.144
CN(C)C(=O)Cn1c2c(ccc1=O)CCN(Cc1cnn(C)c1)CC2.O=C(O)C(F)(F)F	-	-10.92	-	-	-21.84	-
Cc1cc(C)n(C2CN(c3nc(-c4ccncc4)nc4c3CCC4)C2)n1	-1.055	-35.6	8.759	-7.678	10.49	-4.139
COc1ccc(OC2CCN(C(=O)c3cnc(C)s3)CC2)cc1	-	3.728	1.106	-14.06	22.56	0.9031
O=C(Cc1ccccn1)N1CCc2ncnc(N3CCCC3)c2CC1.O=C(O)C(F)(F)F	-	3.718	-	-	-4.194	-
Cc1nn(C)c2cn(CC(=O)N3CCN(c4ccccc4)CC3)nc12	-4.019	7.323	4.847	-4.811	30.49	0.7638
Cc1cc(C)c(CNC(=O)NCc2cc(F)cc(F)c2)c(=O)[nH]1	-6.438	-4.949	0.9126	-10.49	19.13	-4.773
COCCN(Cc1nccs1)C(=O)c1c(C)cc(C)[nH]c1=O	3.11	18.77	-4.119	1.966	-16.18	-1.147
O=C(c1ccccc1-n1cccn1)N1CCC(Nc2cccnn2)CC1	-16.6	-4.724	3.133	-32.5	2.078	-1.129
O=C1CN(Cc2nnc(-c3ccc(Br)cc3)o2)CCN1	-28.74	-1.687	3.376	1.574	44.87	9.858
N#Cc1ccc(NCC(O)c2ccco2)c(C(F)(F)F)c1 (stereo not drawn)	-0.2611	-12.83	-17.17	1.827	-3.326	0.9104
CCc1nnc2n1CCN(Cc1cccc3c1OCCO3)C2	-28.4	20.58	2.864	-2.897	-1.946	6.483
Cc1cc(NC(=O)CN2CCc3cnc(C)nc3C2)on1	-8.018	0.565	1.836	-4.716	-26.26	7.895
CCNC(=O)NC(=O)CNc1cc(C#N)ccc1OCC	3.625	-5.9	15.35	-3.894	1.231	-10.74
O=C(O)C(F)(F)F.[H][C@]12CCC[C@@]1(COCc1ccccn1)CN(S(=O)(=O)N(C)C)C2	-	1.073	-	-	-19.86	-
CC(=O)N1CC(=O)N(c2cnn(C)c2)CC12CCN(Cc1nccs1)C2 (stereo not drawn)	-34.61	12.56	12.05	-21.17	18.41	4.882
CN(C)C(=O)[C@H]1C[C@@H]2CN(CCc3ccccc3)C[C@H]1O2	-24.98	-	-0.2538	13.72	-	-2.716
CC(=O)NCCc1cc(N2CCN(C(C)=O)CC2)nc(C2CC2)n1	-27.09	-1.345	-2.5	-8.49	10.77	-4.097
CC(C#N)CN(C)C(=O)CCNC(=O)OC(C)(C)C (stereo not drawn)	-5.139	5.248	-1.488	3.902	-23.11	4.405
CC1N(c2cnn(C)c2)C(=O)COC12CCN(CC1CC1)CC2.O=C(O)C(F)(F)F (stereo not drawn)	-	-27.09	-	-	23.5	-
Cc1cc(CS(=O)(=O)N(C)C(C)c2ccc(Cl)cc2)on1 (stereo not drawn)	-6.739	2.655	3.89	3.265	-0.3991	4.873
COCC1CC2(CCN(CC3CC3)CC2)CN1Cc1csc(C)n1.O=C(O)C(F)(F)F.O=C(O)C(F)(F)F (stereo not drawn)	-	12.33	-	-	23.67	-
CN1CCN(C)C(c2nnc3ccc(C(=O)N4CCOCC4)cn23)C1 (stereo not drawn)	-24.45	-	3.382	7.585	-	-3.818
COCc1cc(N2CCN(C3CCCCC3)CC2)n2nccc2n1	-1.095	-11.11	6.277	-4.035	-15.1	2.093
CC(NC(=O)CSCC(=O)Nc1ccccc1)c1ccccc1 (stereo not drawn)	-9.773	-6.717	-5.175	5.419	-10.49	2.047
Cc1nn(C)c(N2CCCN(C)CC2)c1CNC(=O)C(C)(C)C	-25.48	4.234	-3.738	1.285	12.27	-1.117
O=C(Cc1ccccc1F)N1CCCCC1c1ccn2ccnc2n1 (stereo not drawn)	-	17.73	4.116	-1.265	-15.23 and 5.096	-
O=C(c1cc(=O)n(-c2ccccc2)[nH]1)N1CCOC(C(F)(F)F)C1 (stereo not drawn)	13.62	-4.658	15.07	6.924	17.28	0.7538
Cc1ccc(CN2C[C@H]3CN(C(=O)c4ccno4)CCN3C2=O)cc1	-23.58	-	1.58	-3.389	-	0.2259
CCSCCC(C)N(C)C(=O)c1ccc(C)o1 (stereo not drawn)	-20.56	1.039	5	-0.8099	26.69	-4.758
CC(C)Cc1nnc(NC(=O)NC(CCO)c2cccs2)s1 (stereo not drawn)	16.12	2.923	1.503	-15.18	13.18	2.369
Cn1nc(CNC(=O)c2cccc(C(F)(F)F)c2)c2c1CCOC2	-12.84	3.477	-2.24	-11.62	7.395	0.6785
O=C(CCC1CCCC1)NCc1nnc2ccccn12	-38.72	-1.402	-	8.248	26.56	3.128
COc1c(CNCCNC(=O)Cc2ccc(F)cc2)c(C)nn1C	-19.33	-2.262	2.698	12.96	-7.047	-5.928
c1ccc(-c2noc(CN3CCCC(Cn4cncn4)C3)n2)nc1 (stereo not drawn)	-1.836	7.686	3.412	-22.29	12.41	1.948
CCc1ncnc(N2CCOCC2C(N)=O)c1F (stereo not drawn)	3.925	-13.56	6.311	-10.64	19.19	2.448
Cc1cnn(C2CN(c3nc(-c4ccncc4)nc4c3CCC4)C2)c1	-7.205	-13.3	5.839	-2.211	3.97	6.463
Cc1noc(C)c1C(=O)N(C)C(C)c1cccnc1 (stereo not drawn)	-	5.509	3.563	-3.949	-5.434	-1.396
Cc1cccc(NC(=O)Nc2c[nH]c(=O)[nH]c2=O)c1C	-0.4867	25.2	0.3632	1.872	8.781	4.044
Cc1nnc(N2CCc3cnc(C(C)C)nc3C2)c(C#N)c1C	-13.19	-14.96	4.97	5.58	-1.782	-2.234
CS(=O)(=O)CCNCc1ccc(OCc2cscn2)cc1	-14.36	-7.489	-0.4831	-0.4001	29	-4.545
CC(C)C(=O)NCC(=O)NCC1CCN(c2cnn(C)c(=O)c2)CC1	-24.99	20.03	5.939	-9.049	-19.48	-0.8081
NCC1[C@H]2CN(CCc3ccccc3)C[C@@H]12 (stereo partly drawn)	-14.12	-	-1.209	12.02	-	-1.908
COc1ccccc1CC(C)(C)NC(=O)CN(C)C(C)C	-15.07	-1.34	8.73	-2.132	14.05	3.177
Cc1ccc(-c2snnc2C(=O)NCCCO)cc1	-1.136	-70.66	3.061	-18.34	31.36	1.146
Cn1nccc1CNC(=O)Cn1nc(C(F)(F)F)cc1C1CC1	19.16	28.58	0.6135	2.274	-1.493	-
CC(NC(=O)C1=NN(C)C(=O)CC1)c1ccc(Cl)cc1 (stereo not drawn)	-12.89	5.182	1.152	-3.551	12.2	0.8997
CCNC(=O)N1CCCCC1CCNS(C)(=O)=O (stereo not drawn)	-9.274	-1.616	-10.02	-4.144	24.55	-3.638
C1CC(c2noc(C3CC3)n2)N(Cc2nnc(C3CC3)o2)C1 (stereo not drawn)	-13.73	12.59	5.853	-0.3302	11.77	-7.934
CC(C)(C)CC(=O)N1CCCC2(CC(C(=O)Nc3ccccc3)=NO2)C1 (stereo not drawn)	-23.61	24.88	-11.11	-5.809	-4.555	-6.987
CCC1c2ccsc2CCN1C(=O)NCc1ccccn1 (stereo not drawn)	-11.24	2.03	3.368	10.69	22.35	2.301

Some entries from above, unchanged:

compound	Pks13 thioesterase	Toxoplasma	CoaBC	ClpP1P2	Leishmania in macrophages	MtTrpRS
CN1CCN(C)C(c2nnc3ccc(C(=O)N4CCOCC4)cn23)C1 (stereo not drawn)	-24.45	-	3.382	7.585	-	-3.818
O=C(O)C(F)(F)F.[H][C@@]12CCN(c3cnccn3)C[C@]1([H])CN(C(=O)c1cncn1C)C2	-	-37.11	-	-	18.05	-
O=C(Cc1ccccc1F)N1CCCCC1c1ccn2ccnc2n1 (stereo not drawn)	-	17.73	4.116	-1.265	-15.23 and 5.096	-
CC(NC(=O)C1=NN(C)C(=O)CC1)c1ccc(Cl)cc1 (stereo not drawn)	-12.89	5.182	1.152	-3.551	12.2	0.8997

From ChEMBL document CHEMBL3988442, “University of Dundee, Small-Polar-MMV Screening Library” (2021).